Reference: article PMC8519931
Results are given in words; binding and its absence hold for the method and conditions named. In cells and extracts the contact can be indirect. Binding calls can cover weak binding; strength is not graded here. Where a sequence is shown, tags or fusion partners need not be part of it.

Assays:
FLAG-ULK1 D1038-1051 = target: T1, FLAG-ULK1 D1038-1051 (UniProt O70405); assay: co-IP; FLAG-ULK1 forms and HA-BNIP3 co-expressed in HEK-293 T cells; FLAG-tagged proteins immunoprecipitated on anti-FLAG M2 magnetic beads (NP-40 IP lysis buffer), 1 h at 4 °C; BNIP3 detected by blot
T1 sequence: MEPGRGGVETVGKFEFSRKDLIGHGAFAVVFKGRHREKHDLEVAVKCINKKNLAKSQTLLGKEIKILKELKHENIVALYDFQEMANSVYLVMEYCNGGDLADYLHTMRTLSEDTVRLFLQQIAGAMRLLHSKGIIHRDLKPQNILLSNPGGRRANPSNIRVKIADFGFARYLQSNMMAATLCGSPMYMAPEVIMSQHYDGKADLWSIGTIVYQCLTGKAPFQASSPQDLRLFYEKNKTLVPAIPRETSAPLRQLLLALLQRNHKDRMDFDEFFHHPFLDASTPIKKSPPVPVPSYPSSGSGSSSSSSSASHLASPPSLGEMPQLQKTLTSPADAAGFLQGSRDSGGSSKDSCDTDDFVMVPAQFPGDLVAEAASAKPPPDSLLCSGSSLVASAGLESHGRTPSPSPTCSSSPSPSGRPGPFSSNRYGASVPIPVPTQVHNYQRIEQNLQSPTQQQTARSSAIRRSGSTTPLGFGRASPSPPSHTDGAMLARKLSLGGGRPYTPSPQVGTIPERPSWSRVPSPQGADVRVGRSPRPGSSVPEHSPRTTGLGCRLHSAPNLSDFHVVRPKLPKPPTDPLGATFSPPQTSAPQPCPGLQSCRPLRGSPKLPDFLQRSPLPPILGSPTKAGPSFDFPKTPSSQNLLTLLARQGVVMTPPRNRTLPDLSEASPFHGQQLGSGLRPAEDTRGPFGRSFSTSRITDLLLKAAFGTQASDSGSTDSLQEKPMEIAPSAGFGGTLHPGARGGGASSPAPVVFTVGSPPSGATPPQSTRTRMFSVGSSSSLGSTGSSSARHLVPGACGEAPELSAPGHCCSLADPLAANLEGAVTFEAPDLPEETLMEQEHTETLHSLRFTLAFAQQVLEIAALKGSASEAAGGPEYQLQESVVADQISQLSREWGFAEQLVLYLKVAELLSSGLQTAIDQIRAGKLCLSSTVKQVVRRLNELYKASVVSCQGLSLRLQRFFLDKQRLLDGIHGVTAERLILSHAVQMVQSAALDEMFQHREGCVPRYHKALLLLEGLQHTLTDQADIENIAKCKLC

FLAG-ULK1 (full-length) = target: T2, FLAG-ULK1 (full-length) (UniProt O70405); assay: as above
T2 sequence: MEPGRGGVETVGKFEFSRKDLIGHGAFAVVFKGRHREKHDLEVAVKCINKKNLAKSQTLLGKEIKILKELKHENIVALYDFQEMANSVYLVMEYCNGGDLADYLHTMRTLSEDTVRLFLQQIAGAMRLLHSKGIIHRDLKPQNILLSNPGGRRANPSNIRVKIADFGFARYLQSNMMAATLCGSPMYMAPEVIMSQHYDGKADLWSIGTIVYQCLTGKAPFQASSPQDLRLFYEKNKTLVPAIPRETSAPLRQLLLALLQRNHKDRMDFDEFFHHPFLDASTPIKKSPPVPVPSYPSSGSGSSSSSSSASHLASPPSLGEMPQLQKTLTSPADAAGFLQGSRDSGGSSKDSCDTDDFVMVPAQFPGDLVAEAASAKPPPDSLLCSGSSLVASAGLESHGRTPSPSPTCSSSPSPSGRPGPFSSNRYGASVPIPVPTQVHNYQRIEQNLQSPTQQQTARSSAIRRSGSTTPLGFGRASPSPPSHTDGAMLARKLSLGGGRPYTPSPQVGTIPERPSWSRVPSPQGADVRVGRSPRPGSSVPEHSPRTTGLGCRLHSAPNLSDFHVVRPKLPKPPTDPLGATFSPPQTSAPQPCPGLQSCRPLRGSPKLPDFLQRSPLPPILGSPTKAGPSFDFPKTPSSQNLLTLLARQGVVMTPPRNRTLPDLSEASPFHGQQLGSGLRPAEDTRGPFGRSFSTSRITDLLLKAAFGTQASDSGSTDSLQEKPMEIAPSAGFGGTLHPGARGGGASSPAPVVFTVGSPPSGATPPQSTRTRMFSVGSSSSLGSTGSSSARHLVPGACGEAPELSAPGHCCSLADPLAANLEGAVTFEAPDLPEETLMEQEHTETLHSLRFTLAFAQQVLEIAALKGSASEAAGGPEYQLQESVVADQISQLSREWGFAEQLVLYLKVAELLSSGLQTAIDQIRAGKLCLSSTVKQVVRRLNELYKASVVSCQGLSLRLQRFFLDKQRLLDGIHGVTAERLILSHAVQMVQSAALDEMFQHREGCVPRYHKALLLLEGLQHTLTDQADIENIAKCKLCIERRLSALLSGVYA

Substance: HA-BNIP3 (WT)
- binding (FLAG-ULK1 D1038-1051): binds
- binding (FLAG-ULK1 (full-length)): binds
